In PubChem BioAssay AID540276 (National Center for Advancing Translational Sciences (NCATS), 2011):
Values joined by “and” are separate entries in the source; they are usually repeats but may differ in a detail not shown here. Equal entries are not always repeated. Out of some 300,000 compounds screened, about 5,400 (1.8%) were called active. This list was built around the results that the source calls inconclusive (neither active nor inactive); the mix of calls is not that of the screen. Calls follow the shape of the full dose curve; tested in HEK293 cells. Potencies of inconclusive entries are doubtful fits and often do not repeat.

Test: qHTS for inhibitors of binding or entry into cells for Marburg Virus
Conditions: Marburg virus pseudotyped entry inhibition, cell reporter; activity change, negative = inhibition: at 37.8 µM (top of the series) unless noted
% is scaled to controls: 0 for no effect and ±100 for the full control effect; potency is read from the fitted curve at half-maximal effect.

| Structure (SMILES) | Potency | activity change, negative = inhibition |
| --- | --- | --- |
| Cn1cccc1/C=N/NC(=O)C12CC3CC(CC(C3)C1)C2 | inconclusive: 0.1 µM [activator, full curve, poor fit] | – |
| O=C(COC(=O)CSc1ccc(Cl)cc1)NCCc1ccccc1 | – | inactive: 17.9% |
| O=C(COC(=O)CCC(=O)c1ccc(F)cc1)Nc1cccc(S(=O)(=O)N2CCOCC2)c1 | – | inactive: 20.5% [at 46.1 µM] |
| Cc1ccc(S(=O)(=O)C(c2ccccc2)c2c(C)noc2C)cc1 (stereo unspecified) | active: 0.631 µM | – |
| Fc1ccc(/C=C/c2nnc(-c3cccs3)o2)cc1 | inconclusive: 1 µM [activator, partial curve, poor fit] | – |
| c1ccc(CN2CCC3(CCCc4ccccc43)CC2)cc1 | active: 6.31 µM | – |
| CN1C(=O)CC(N2CCN(C(=O)CN3CCCC3)CC2)C1=O (stereo unspecified) | – | inactive: -3.66% |
| COc1ccc([C@]23Cc4ccccc4[C@H](O2)C2=C(O3)C(=O)c3ccccc3C2=O)cc1 | – | inactive: 10.6% [at 14.2 µM] |
| COc1cc(-c2nc(-c3cccc(C(F)(F)F)c3)no2)cc(OC)c1OC | inconclusive: 5.62 µM [inhibitor, full curve, poor fit] | – |
| COc1cccc(-c2cc(C(F)(F)F)nc(NCc3ccco3)n2)c1 | inconclusive: 18.3 µM [inhibitor, single point] | – |
| CCOC(=O)c1c(Oc2ccc(C(C)=O)cc2)nnc(-c2ccccc2)c1-c1ccccc1 | inconclusive: 10 µM [inhibitor, partial curve, poor fit] | – |
| O=C(CN1CCCCC1)Nc1nnc(-c2ccc([N+](=O)[O-])cc2)s1 | – | inactive: 16.9% |
| CN(CC(=O)Nc1ccccc1Br)C(=O)CNC(=O)c1ccc2c(c1)OCO2 | inconclusive: 1.26 µM [activator, single point] | – |
| O=S(=O)(Nc1cccc(CCc2ccccn2)c1)c1cc(Cl)ccc1Cl | inconclusive: 35.5 µM [inhibitor, single point] | – |
| Fc1ccc(-n2nnc(-c3ccccc3Cl)n2)cc1 | – | inactive: -3.8% [at 46.1 µM] |
| ClCCN(CCCl)c1ccc(-n2cnc3c(Cl)ncnc32)cc1 | inconclusive: 7.08 µM [inhibitor, partial curve, poor fit] | – |
| CC1CN(S(=O)(=O)c2ccc(C(=O)Nc3sccc3C(N)=O)cc2)CC(C)O1 (stereo unspecified) | inconclusive: 11.6 µM [inhibitor, partial curve, poor fit] | – |
| CCN(CC)CCCNC(=O)c1ccc2c(Cl)c3c(nc2c1)CCCC3 | inconclusive: 35.5 µM [inhibitor, single point] and inconclusive: 11.2 µM [inhibitor, partial curve, poor fit] | – |
| COc1cc(/C=N/N2CCCCC2)cc([N+](=O)[O-])c1O | inconclusive: 22.4 µM [activator, partial curve, poor fit] | – |
| CCCc1ccc(Oc2cn[nH]c2-c2ccc(O)cc2O)cc1 | – | inactive: -20.2% |
| O=C(c1c[nH]c2ccccc12)C(O)C(c1ccccc1)N1CCOCC1 (stereo unspecified) | – | inactive: -3.07% |
| c1ccc(NC2=NCCCCS2)cc1 | inconclusive: 0.206 µM [inhibitor, full curve, poor fit] | – |
| Clc1ccc(-c2csc(N/N=C\c3cccnc3)n2)cc1 | inconclusive: 3.26 µM [inhibitor, single point] | – |
| O=C(Nc1ccccc1)c1cccn(Cc2ccccc2)c1=O | inconclusive: 35.5 µM [inhibitor, single point] | – |

| Structure (SMILES) | Potency | activity change, negative = inhibition |
| --- | --- | --- |
| O=C(O)CCc1ccc(S(=O)(=O)Nc2ccccc2C(=O)NCCc2ccccc2)cc1 | inconclusive: 15.8 µM [activator, single point] | – |
| COc1cc2c(cc1OC)-c1cc(Nc3ccccc3Br)nc(=O)n1CC2 | inconclusive: 6.31 µM [activator, single point] | – |
| CCCN(C(=O)CCNC(=O)Cn1cnc2ccccc2c1=O)c1cccc(C)c1 | – | inactive: 0.446% [at 46.1 µM] |
| COc1ccc(NC(=O)N2CCCC(c3nc(-c4ccc(C(C)C)cc4)no3)C2)cc1 (stereo unspecified) | – | inactive: -25.6% |
| COCCn1c(SCC(=O)c2ccccc2)nc2ccccc2c1=O | inconclusive: 25.1 µM [inhibitor, single point] | – |
| Fc1ccccc1CSc1ncnc2c1ncn2C1CCCCO1 (stereo unspecified) | inconclusive: 2.24 µM [activator, partial curve, poor fit] | – |
| O=C(NCCCn1ccnc1)c1cccc(S(=O)(=O)Nc2ccc(F)cc2)c1 | inconclusive: 3.55 µM [activator, single point] | – |
| O=C(Nc1nc(-c2ccc3ccccc3c2)cs1)C1CCN(S(=O)(=O)c2cccs2)CC1 | – | inactive: -1.77% |
| O=c1cc(-c2ccccc2)c2ccc3c(c2o1)CN(Cc1ccccc1)CO3 | – | inactive: 2.94% [at 46.1 µM] |
| COCCN(C(=O)c1ccccc1F)c1nc(-c2ccc(OC)cc2)cs1 | inconclusive: 0.112 µM [inhibitor, full curve, poor fit] | – |
| CCc1ccc(-c2nc(CN3CCC(C(=O)NCc4ccccc4OC)CC3)c(C)o2)cc1 | inconclusive: 29.1 µM [inhibitor, single point] | – |
| Cc1ccc(C(NC(=O)N2CCOCC2)C(Cl)Cl)cc1F (stereo unspecified) | – | inactive: 14.6% |
| O=C(O)c1c(Cl)cccc1Nc1ccccc1 | – | inactive: 2.61% [at 46.1 µM] |
| CCCc1cc(C(=O)NC2CCCN(Cc3ccccc3F)C2)no1 (stereo unspecified) | inconclusive: 28.2 µM [inhibitor, single point] | – |
| COc1ccc(-n2nc3ccc(NS(C)(=O)=O)cc3n2)cc1Cl | inconclusive: 0.501 µM [activator, full curve] | – |
| COc1ccc(Nc2nc(-c3c[nH]c4ccccc34)cs2)cc1 | – | inactive: 1.25% |
| COc1ccc(C2CC(=O)N(Cc3ccccc3)c3c2c(C)nn3-c2nc(C)cc(C)n2)c(OC)c1 (stereo unspecified) | – | inactive: -4.91% [at 46.1 µM] |
| O=C1CC(c2ccccc2)C(c2ccccc2)=NN1 (stereo unspecified) | – | inactive: 0.609% [at 46.1 µM] |
| CCOC(=O)OC[C@H]1O[C@H](C#Cc2ccc(C)cc2C)C=C[C@@H]1OC(=O)OCC | – | inactive: 4.43% [at 14.2 µM] |
| CCn1c(O)c(C=Nc2ccccc2)sc1=S | inconclusive: 0.562 µM [activator, full curve, poor fit] | – |
| CCN(CC)CCCN(c1ccccc1)C1Cc2ccccc2C1 | active: 6.51 µM | – |
| CC(C)C1Cc2c(sc3ncnc(NN)c23)CO1 (stereo unspecified) | inconclusive: 1.26 µM [inhibitor, single point] | – |
| O=C(OCCCOC(=O)c1ccc(O)cc1)c1ccc(O)cc1 | – | inactive: 11.8% [at 46.1 µM] |
| COCC(C)NC(=O)C1CC(c2cccc(Br)c2)=NO1 (stereo unspecified) | – | inactive: 1.64% |

Exported with bars between the fields: 3 of the compounds above.
Structure (SMILES) | Potency | activity change, negative = inhibition
O=C(COC(=O)CSc1ccc(Cl)cc1)NCCc1ccccc1 | – | inactive: 17.9%
O=C(COC(=O)CCC(=O)c1ccc(F)cc1)Nc1cccc(S(=O)(=O)N2CCOCC2)c1 | – | inactive: 20.5% [at 46.1 µM]
Cc1ccc(S(=O)(=O)C(c2ccccc2)c2c(C)noc2C)cc1 (stereo unspecified) | active: 0.631 µM | –

Shown comma-delimited: part of the list above.
Structure (SMILES),Potency,"activity change, negative = inhibition"
COc1ccc(Nc2nc(-c3c[nH]c4ccccc34)cs2)cc1,–,inactive: 1.25%
COc1ccc(C2CC(=O)N(Cc3ccccc3)c3c2c(C)nn3-c2nc(C)cc(C)n2)c(OC)c1 (stereo unspecified),–,inactive: -4.91% [at 46.1 µM]

Going on with the list.

| Structure (SMILES) | Potency | activity change, negative = inhibition |
| --- | --- | --- |
| CC(=O)c1c(C)[nH]c(C(=O)N2CCN(S(=O)(=O)c3ccc(F)c(F)c3)CC2)c1C | inconclusive: 5.62 µM [activator, single point] | – |
| CC1(c2ccccc2)CC(C)(C)N2C(=O)C(=O)c3cccc1c32 (stereo unspecified) | inconclusive: 17.8 µM [inhibitor, single point] | – |
| CCOc1ccc(/C=C/C2=NNC(=O)CC2)cc1 | – | inactive: -23.7% [at 46.1 µM] |
| O=C(Nc1ccc(F)cc1)N1CCN(C/C=C/c2ccccc2)CC1 | inconclusive: 35.5 µM [activator, single point] | – |
| Oc1cccc(Nc2nc(N3CCOCC3)nc(N3CCOCC3)n2)c1 | inconclusive: 11.2 µM [inhibitor, partial curve, poor fit] | – |
| CCN(C(=O)c1cc2c(=O)oc3ccc(C)cc3c2s1)c1ccccc1F | – | inactive: 10.9% [at 46.1 µM] |
| CCCC1(C)C(C#N)C(=O)NC(=O)C1C#N (stereo unspecified) | inconclusive: 35.5 µM [activator, single point] | – |
| Fc1ccccc1NC(=S)NCCc1ccccc1 | inconclusive: 0.1 µM [activator, full curve, poor fit] | – |
| CCOc1ccc(C(NC(C)=O)c2ccc(OC)c(OC)c2)cc1 (stereo unspecified) | – | inactive: 20.2% [at 46.1 µM] |
| Cc1nc([N+](=O)[O-])cn1CC(O)c1ccccc1 (stereo unspecified) | inconclusive: 2.24 µM [activator, partial curve, poor fit] | – |
| O=C(Nc1ccc2ccccc2c1)c1ccc(Br)o1 | inconclusive: 35.5 µM [inhibitor, single point] | – |
| Cc1ccc2nc(SCC(=O)NCc3ccco3)c(C)cc2c1 | inconclusive: 7.08 µM [inhibitor, partial curve, poor fit] | – |
| CCN(CC)c1cc(C)c2cc(NC(=O)c3ccc(F)cc3Cl)ccc2n1 | – | inactive: -7.19% [at 46.1 µM] |
| O=C1CNCc2[nH]c3ccccc3c2N1c1ccccc1 | inconclusive: 23.1 µM [inhibitor, single point] | – |
| CCc1c(C)nc(SCCOc2ccc(OC(C)C)cc2)[nH]c1=O | inconclusive: 20 µM [inhibitor, single point] | – |
| CCN(CC)CCCNC(=O)c1cc(Nc2ccc(OC)cc2)nc2ccccc12 | inconclusive: 7.94 µM [inhibitor, partial curve, poor fit] | – |
| COc1ccc(C(=O)Nc2ccccc2N2CCN(C(=O)c3ccccc3)CC2)cc1Br | inconclusive: 2.51 µM [inhibitor, full curve, poor fit] | – |
| O=C(CC(=O)Nc1ccccc1[N+](=O)[O-])Nc1ccccc1[N+](=O)[O-] | inconclusive: 10 µM [inhibitor, partial curve] | – |
| COc1ccc(O)c(C(=O)c2cnn(C(=O)c3cccc(S(=O)(=O)N4CCOCC4)c3)c2)c1 | inconclusive: 6.31 µM [activator, single point] | – |
| CCOc1ccccc1C(=O)N1c2ccccc2Sc2ccccc21 | inconclusive: 22.4 µM [inhibitor, single point] | – |
| O=C1CC(c2ccccc2)CC(O)=C1C=Nc1cccc(Cl)c1 (stereo unspecified) | inconclusive: 22.4 µM [inhibitor, partial curve, poor fit] | – |
| CC(Oc1ccc(C(=O)c2ccccc2)cc1)C(=O)Nc1ccc(S(N)(=O)=O)cc1 (stereo unspecified) | inconclusive: 17.8 µM [inhibitor, single point] | – |
| CCOC(=O)c1cn2nc(Oc3cccc(F)c3)ccc2n1 | inconclusive: 15.8 µM [activator, single point] | – |
